Measurements reported in the supplement of paper PMC10849652.
Some of the results follow.

The chains behind the UniProt entries cited, without tags or fusion partners. Where a name states a change or a piece, a line headed by the entry shows the natural chain unless it says otherwise.
UniProt P04843: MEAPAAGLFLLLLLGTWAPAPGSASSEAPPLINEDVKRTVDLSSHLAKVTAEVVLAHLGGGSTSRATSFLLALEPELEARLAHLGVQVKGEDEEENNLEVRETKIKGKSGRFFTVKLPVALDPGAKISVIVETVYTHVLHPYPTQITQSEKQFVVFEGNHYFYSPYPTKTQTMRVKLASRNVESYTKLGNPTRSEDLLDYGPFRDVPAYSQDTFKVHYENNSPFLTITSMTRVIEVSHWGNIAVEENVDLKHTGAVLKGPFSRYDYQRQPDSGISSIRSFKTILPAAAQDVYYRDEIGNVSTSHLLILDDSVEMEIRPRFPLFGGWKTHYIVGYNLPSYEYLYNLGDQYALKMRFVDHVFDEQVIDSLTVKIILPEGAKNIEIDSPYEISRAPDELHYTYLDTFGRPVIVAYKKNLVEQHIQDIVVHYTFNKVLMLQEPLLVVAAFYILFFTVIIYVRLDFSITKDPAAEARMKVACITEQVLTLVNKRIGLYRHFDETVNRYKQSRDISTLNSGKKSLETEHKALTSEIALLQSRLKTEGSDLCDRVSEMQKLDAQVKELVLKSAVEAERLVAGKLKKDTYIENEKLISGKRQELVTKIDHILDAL
UniProt Q9BY42: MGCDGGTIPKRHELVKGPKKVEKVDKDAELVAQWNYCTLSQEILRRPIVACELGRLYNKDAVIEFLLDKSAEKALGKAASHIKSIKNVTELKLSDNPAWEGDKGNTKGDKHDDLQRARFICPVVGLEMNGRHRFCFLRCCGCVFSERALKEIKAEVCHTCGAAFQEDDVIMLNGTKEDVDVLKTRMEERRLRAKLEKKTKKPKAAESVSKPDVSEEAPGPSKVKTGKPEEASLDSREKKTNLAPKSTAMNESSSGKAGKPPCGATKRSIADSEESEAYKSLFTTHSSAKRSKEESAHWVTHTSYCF
UniProt Q15418, whole entry, looked up: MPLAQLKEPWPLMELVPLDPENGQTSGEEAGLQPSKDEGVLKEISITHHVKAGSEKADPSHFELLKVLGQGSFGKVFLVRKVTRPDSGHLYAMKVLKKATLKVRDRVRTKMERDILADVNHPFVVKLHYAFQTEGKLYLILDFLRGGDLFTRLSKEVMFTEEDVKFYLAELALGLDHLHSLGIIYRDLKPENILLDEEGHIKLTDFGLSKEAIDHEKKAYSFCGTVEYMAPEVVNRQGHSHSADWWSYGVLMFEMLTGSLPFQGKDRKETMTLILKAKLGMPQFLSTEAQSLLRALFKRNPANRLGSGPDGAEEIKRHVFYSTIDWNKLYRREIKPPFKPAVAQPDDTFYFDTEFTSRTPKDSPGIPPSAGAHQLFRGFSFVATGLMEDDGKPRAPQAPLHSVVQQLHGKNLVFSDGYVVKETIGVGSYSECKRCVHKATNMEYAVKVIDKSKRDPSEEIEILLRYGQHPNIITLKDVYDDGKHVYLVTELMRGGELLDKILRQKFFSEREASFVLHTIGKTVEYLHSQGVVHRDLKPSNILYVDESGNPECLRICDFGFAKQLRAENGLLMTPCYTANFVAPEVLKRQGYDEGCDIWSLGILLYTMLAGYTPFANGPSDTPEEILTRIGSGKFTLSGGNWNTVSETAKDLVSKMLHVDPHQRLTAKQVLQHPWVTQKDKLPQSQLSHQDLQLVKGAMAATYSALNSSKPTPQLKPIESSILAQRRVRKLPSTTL
UniProt Q9NYV6: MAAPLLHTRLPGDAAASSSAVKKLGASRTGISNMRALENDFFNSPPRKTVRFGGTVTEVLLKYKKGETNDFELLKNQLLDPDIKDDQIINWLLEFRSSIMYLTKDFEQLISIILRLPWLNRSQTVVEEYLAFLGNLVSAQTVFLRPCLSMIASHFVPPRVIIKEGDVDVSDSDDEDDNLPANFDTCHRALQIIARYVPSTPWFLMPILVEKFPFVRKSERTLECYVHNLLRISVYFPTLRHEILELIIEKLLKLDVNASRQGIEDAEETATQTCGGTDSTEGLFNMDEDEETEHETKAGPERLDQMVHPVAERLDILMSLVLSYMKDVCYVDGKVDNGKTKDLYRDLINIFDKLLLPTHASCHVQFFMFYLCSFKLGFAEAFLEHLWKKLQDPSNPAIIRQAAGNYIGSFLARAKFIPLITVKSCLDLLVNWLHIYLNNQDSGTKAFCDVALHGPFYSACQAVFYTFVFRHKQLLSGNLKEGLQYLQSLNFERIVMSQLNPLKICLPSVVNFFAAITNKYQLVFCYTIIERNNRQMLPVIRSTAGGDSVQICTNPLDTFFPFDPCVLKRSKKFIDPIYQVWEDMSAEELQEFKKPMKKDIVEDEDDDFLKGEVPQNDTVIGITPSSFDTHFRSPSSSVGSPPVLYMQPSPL
UniProt Q9Y3B9: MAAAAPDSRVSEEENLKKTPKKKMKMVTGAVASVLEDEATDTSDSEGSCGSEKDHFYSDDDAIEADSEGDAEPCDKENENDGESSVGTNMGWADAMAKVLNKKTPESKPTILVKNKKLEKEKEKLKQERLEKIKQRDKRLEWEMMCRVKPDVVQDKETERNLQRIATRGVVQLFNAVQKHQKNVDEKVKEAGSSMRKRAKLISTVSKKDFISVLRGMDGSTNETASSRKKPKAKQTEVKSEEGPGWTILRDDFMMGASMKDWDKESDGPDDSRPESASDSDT
UniProt O75298: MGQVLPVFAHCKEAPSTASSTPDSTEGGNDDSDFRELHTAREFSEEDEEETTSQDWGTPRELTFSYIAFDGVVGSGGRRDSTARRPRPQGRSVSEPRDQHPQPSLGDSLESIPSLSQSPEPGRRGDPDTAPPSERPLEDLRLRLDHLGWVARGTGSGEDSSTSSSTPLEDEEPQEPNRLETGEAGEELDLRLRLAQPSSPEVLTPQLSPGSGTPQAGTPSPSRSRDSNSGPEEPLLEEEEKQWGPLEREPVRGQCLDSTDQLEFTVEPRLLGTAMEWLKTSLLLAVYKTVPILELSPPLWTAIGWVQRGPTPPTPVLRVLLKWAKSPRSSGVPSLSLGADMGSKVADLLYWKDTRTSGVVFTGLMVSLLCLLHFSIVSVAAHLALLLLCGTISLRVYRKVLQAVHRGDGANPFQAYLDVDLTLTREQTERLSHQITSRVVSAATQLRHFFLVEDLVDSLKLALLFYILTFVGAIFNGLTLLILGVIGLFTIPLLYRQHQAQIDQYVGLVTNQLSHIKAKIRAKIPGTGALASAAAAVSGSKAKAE
UniProt Q99584: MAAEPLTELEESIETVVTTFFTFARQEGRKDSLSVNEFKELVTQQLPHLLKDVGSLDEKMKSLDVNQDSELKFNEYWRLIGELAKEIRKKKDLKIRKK
UniProt P05386, whole entry, looked up: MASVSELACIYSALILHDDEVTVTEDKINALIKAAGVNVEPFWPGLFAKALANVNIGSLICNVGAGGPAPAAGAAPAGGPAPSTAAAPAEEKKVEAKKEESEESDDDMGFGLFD
UniProt Q15404: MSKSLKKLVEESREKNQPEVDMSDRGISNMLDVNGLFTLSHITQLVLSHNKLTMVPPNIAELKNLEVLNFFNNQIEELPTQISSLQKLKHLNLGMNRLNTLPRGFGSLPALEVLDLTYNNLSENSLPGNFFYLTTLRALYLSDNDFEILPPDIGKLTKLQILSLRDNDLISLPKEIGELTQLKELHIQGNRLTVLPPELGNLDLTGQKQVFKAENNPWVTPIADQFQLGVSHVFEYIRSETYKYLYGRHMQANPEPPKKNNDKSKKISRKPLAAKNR

Legend:
Experiment in all cases: log2 fold change, soluble protein after heating vs DMSO (PISA); higher = thermal stabilisation; K562 lysate, 10 uM; active = over 0.2 and 3.5 SD of the protein, either way, in both replicates (recomputed)
lapatinib = compound: CS(=O)(=O)CCNCc1ccc(-c2ccc3ncnc(Nc4ccc(OCc5cccc(F)c5)c(Cl)c4)c3c2)o1 [lapatinib]
Summary of the method: (§1)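 Soluble protein was defined as the supernatant remaining after 21,000xg for 90 min, following pooling of heated aliquots and adjustment to 0.5% NP-40 at 4°C. Before that, crude K562 extract at 1 mg/mL protein in PBS pH 7.4 with 1 mM MgCl2 was treated with 10 μM compound for 30 min and heated for 3 min across 48°C-58°C. Quantification used TMTpro 16plex LC-MS/MS with channel sums equalised, and values are log-two fold changes in thermal stability relative to solvent controls from duplicates.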

pictilisib = compound: CS(=O)(=O)N1CCN(Cc2cc3nc(-c4cccc5[nH]ncc45)nc(N4CCOCC4)c3s2)CC1 [pictilisib]
Summary of the method: as §1

crizotinib = compound: C[C@@H](Oc1cc(-c2cnn(C3CCNCC3)c2)cnc1N)c1c(Cl)ccc(F)c1Cl [crizotinib]
Summary of the method: as §1

[1] = compound: C[C@H](C1=CC=C(C=C1)C(=O)NC2=C3C=CNC3=NC=C2)N
Summary of the method: as §1

duvelisib = compound: C[C@H](Nc1ncnc2nc[nH]c12)c1cc2cccc(Cl)c2c(=O)n1-c1ccccc1 [duvelisib]
Summary of the method: as §1

gandotinib = compound: Cc1cc(Nc2cc(CN3CCOCC3)c3nc(C)c(Cc4ccc(Cl)cc4F)n3n2)n[nH]1 [gandotinib]
Summary of the method: as §1

tozasertib = compound: Cc1cc(Nc2cc(N3CCN(C)CC3)nc(Sc3ccc(NC(=O)C4CC4)cc3)n2)n[nH]1 [tozasertib]
Summary of the method: as §1

doramapimod = compound: Cc1ccc(-n2nc(C(C)(C)C)cc2NC(=O)Nc2ccc(OCCN3CCOCC3)c3ccccc23)cc1 [doramapimod]
Summary of the method: as §1

bafetinib = compound: Cc1ccc(NC(=O)c2ccc(CN3CC[C@H](N(C)C)C3)c(C(F)(F)F)c2)cc1Nc1nccc(-c2cncnc2)n1 [bafetinib]
Summary of the method: as §1

[2] = compound: Cc1cccc(CC(=O)N2CCc3c2ccc(-c2cn(C)c4ncnc(N)c24)c3F)n1
Summary of the method: as §1

nilotinib = compound: Cc1cn(-c2cc(NC(=O)c3ccc(C)c(Nc4nccc(-c5cccnc5)n4)c3)cc(C(F)(F)F)c2)cn1 [nilotinib]
Summary of the method: as §1

[3] = compound: Cc1nc(Nc2n[nH]c3c2CN(C(=O)N[C@H](CN(C)C)c2ccccc2)C3(C)C)c2sccc2n1
Summary of the method: as §1

dasatinib = compound: Cc1nc(Nc2ncc(C(=O)Nc3c(C)cccc3Cl)s2)cc(N2CCN(CCO)CC2)n1 [dasatinib]
Summary of the method: as §1

[4] = compound: Cc1ncc(-c2ccnc(Nc3ccc(S(C)(=O)=O)cc3)n2)n1C(C)C
Summary of the method: as §1

[5] = compound: Cn1cc(-c2ccc3c(c2)CCN3C(=O)Cc2cccc(C(F)(F)F)c2)c2c(N)ncnc21
Summary of the method: as §1

quisinostat = compound: Cn1cc(CNCC2CCN(c3ncc(C(=O)NO)cn3)CC2)c2ccccc21 [quisinostat]
Summary of the method: as §1

tipifarnib = compound: Cn1cncc1[C@@](N)(c1ccc(Cl)cc1)c1ccc2c(c1)c(-c1cccc(Cl)c1)cc(=O)n2C [tipifarnib]
Summary of the method: as §1

[6] = compound: NC(=O)Nc1cc(-c2cccc(F)c2)sc1C(=O)N[C@H]1CCCNC1
Summary of the method: as §1

[7] = compound: NC(=O)c1cnc(N[C@@H]2CCCC[C@@H]2N)nc1Nc1cccc(-n2nccn2)c1
Summary of the method: as §1

[8] = compound: NC1(c2ccc(-c3nc4ccn5c(=O)[nH]nc5c4cc3-c3ccccc3)cc2)CCC1
Summary of the method: as §1

Measured: log2 fold change

RPN1 (UniProt P04843)
inactive: lapatinib -0.04 | pictilisib -0.011 | crizotinib -0.015 | [1] -0.041 | duvelisib -0.004 | gandotinib -0.006 | tozasertib 0.003 | doramapimod -0.008 | bafetinib -0.04 | [2] 0.055 | nilotinib 0.013 | [3] -0.028 | dasatinib -0.042 | [4] 0.008 | [5] -0.025 | quisinostat 0.002 | tipifarnib -0.035 | [6] 0 | [7] 0.015 | [8] -0.01

RTF2 (UniProt Q9BY42)
inactive: lapatinib 0.075 | pictilisib -0.123 | crizotinib 0.033 | [1] 0.016 | duvelisib 0.02 | gandotinib -0.079 | tozasertib 0.032 | doramapimod -0.02 | bafetinib -0.011 | [2] 0.001 | nilotinib -0.052 | [3] -0.022 | dasatinib -0.027 | [4] 0.003 | [5] 0.043 | quisinostat -0.017 | tipifarnib -0.002 | [6] -0.031 | [7] -0.176 | [8] 0.042

RPLP0P6 (UniProt Q8NHW5)
inactive: lapatinib 0.003 | pictilisib 0.033 | crizotinib -0.013 | [1] 0.014 | duvelisib 0.016 | gandotinib -0.013 | tozasertib -0.005 | doramapimod 0.001 | [2] 0.034 | nilotinib 0.01 | [3] -0.027 | dasatinib 0.018 | [4] 0.001 | [5] 0.026 | quisinostat -0.049 | tipifarnib -0.02 | [6] 0.002 | [7] 0.005 | [8] -0.016
active: bafetinib 0.274

RPS6KA1 (UniProt Q15418)
inactive: lapatinib -0.067 | pictilisib 0.08 | crizotinib -0.043 | [1] 0.007 | duvelisib 0.008 | gandotinib 0.05 | tozasertib 0.165 | doramapimod -0.039 | bafetinib -0.135 | [2] -0.172 | nilotinib -0.037 | [3] 0.204 | dasatinib -0.113 | [4] 0.078 | [5] 0.031 | quisinostat -0.045 | tipifarnib 0.002 | [6] 0.256 | [7] 0.093 | [8] -0.028

RRN3 (UniProt Q9NYV6)
inactive: lapatinib -0.237 | pictilisib -0.126 | crizotinib -0.1 | [1] 0.058 | duvelisib -0.004 | gandotinib 0.005 | tozasertib 0.152 | doramapimod 0.042 | bafetinib 0.058 | [2] -0.111 | nilotinib -0.02 | [3] 0.06 | dasatinib -0.169 | [4] 0.185 | [5] 0 | quisinostat -0.109 | tipifarnib 0.156 | [6] -0.039 | [7] 0.084

RRP15 (UniProt Q9Y3B9)
inactive: lapatinib -0.01 | pictilisib 0.014 | crizotinib 0.01 | [1] 0.012 | duvelisib -0.03 | gandotinib 0.121 | tozasertib -0.059 | doramapimod 0 | bafetinib -0.032 | [2] -0.006 | nilotinib 0.025 | [3] -0.024 | dasatinib 0.006 | [4] -0.015 | [5] 0.023 | quisinostat -0.054 | tipifarnib -0.004 | [6] -0.018 | [7] -0.034 | [8] -0.022

RTN2 (UniProt O75298)
inactive: lapatinib 0.024 | pictilisib -0.202 | crizotinib 0.059 | [1] 0.019 | duvelisib -0.053 | gandotinib -0.006 | tozasertib -0.021 | doramapimod -0.036 | bafetinib 0.091 | [2] 0.032 | nilotinib -0.019 | [3] 0.03 | dasatinib 0.01 | [4] -0.044 | [5] 0.027 | quisinostat 0.171 | tipifarnib -0.07 | [6] -0.057 | [7] -0.056 | [8] 0.018

RPS6 (UniProt P62753)
inactive: lapatinib -0.031 | pictilisib 0.025 | crizotinib -0.013 | [1] -0.148 | duvelisib 0.042 | gandotinib 0.02 | tozasertib 0 | doramapimod -0.001 | bafetinib -0.003 | [2] 0.069 | nilotinib -0.016 | [3] 0.012 | dasatinib -0.036 | [4] -0.017 | [5] -0.015 | quisinostat 0.078 | tipifarnib 0.019 | [6] -0.024 | [7] -0.002 | [8] -0.008

RPL8 (UniProt P62917)
active: quisinostat 0.222
inactive: lapatinib -0.005 | pictilisib 0.01 | crizotinib 0.059 | [1] 0.147 | duvelisib 0.008 | gandotinib -0.072 | tozasertib 0.033 | doramapimod -0.038 | bafetinib 0.071 | [2] -0.051 | nilotinib -0.005 | [3] -0.004 | dasatinib 0.035 | [4] -0.028 | [5] -0.013 | tipifarnib 0.027 | [6] -0.019 | [7] -0.008 | [8] -0.006

S100A13 (UniProt Q99584)
inactive: lapatinib -0.013 | pictilisib 0 | crizotinib 0.068 | [1] 0.019 | duvelisib -0.002 | gandotinib 0.014 | tozasertib 0.006 | doramapimod -0.015 | bafetinib -0.02 | [2] 0.011 | nilotinib 0.002 | [3] 0.007 | dasatinib 0.027 | [4] 0.006 | [5] 0.021 | quisinostat 0.061 | tipifarnib 0.001 | [6] -0.023 | [7] -0.016 | [8] -0.037

RPS18 (UniProt P62269)
inactive: lapatinib -0.046 | pictilisib 0.006 | crizotinib -0.028 | [1] -0.186 | duvelisib -0.019 | gandotinib 0.071 | tozasertib 0.008 | doramapimod 0.026 | bafetinib -0.004 | [2] 0.094 | nilotinib 0.004 | [3] -0.02 | dasatinib -0.009 | [4] -0.039 | [5] -0.018 | quisinostat 0 | tipifarnib 0.031 | [6] -0.018 | [7] 0.014 | [8] -0.006

RTF1 (UniProt Q92541)
inactive: lapatinib 0.02 | pictilisib 0.039 | crizotinib 0.025 | [1] 0.001 | duvelisib -0.004 | gandotinib -0.012 | tozasertib 0.061 | doramapimod 0.032 | bafetinib -0.012 | [2] -0.01 | nilotinib -0.062 | [3] 0.038 | dasatinib -0.005 | [4] -0.018 | [5] 0.029 | quisinostat -0.013 | tipifarnib -0.001 | [6] -0.013 | [7] 0.014 | [8] 0.03

RPLP1 (UniProt P05386)
inactive: lapatinib 0.034 | pictilisib -0.003 | crizotinib 0.015 | [1] 0.051 | duvelisib 0.056 | gandotinib 0.022 | tozasertib -0.095 | doramapimod 0.052 | bafetinib -0.027 | [2] -0.105 | nilotinib 0.015 | [3] -0.114 | dasatinib -0.015 | [4] 0.048 | [5] -0.006 | quisinostat 0.014 | tipifarnib -0.039 | [6] 0.046 | [7] -0.099 | [8] -0.019

Reprinted at random: 2 records from the list, in no set order.
S100A13 (UniProt Q99584)
inactive: lapatinib -0.013 | pictilisib 0 | crizotinib 0.068 | [1] 0.019 | duvelisib -0.002 | gandotinib 0.014 | tozasertib 0.006 | doramapimod -0.015 | bafetinib -0.02 | [2] 0.011 | nilotinib 0.002 | [3] 0.007 | dasatinib 0.027 | [4] 0.006 | [5] 0.021 | quisinostat 0.061 | tipifarnib 0.001 | [6] -0.023 | [7] -0.016 | [8] -0.037

RPL8 (UniProt P62917)
active: quisinostat 0.222
inactive: lapatinib -0.005 | pictilisib 0.01 | crizotinib 0.059 | [1] 0.147 | duvelisib 0.008 | gandotinib -0.072 | tozasertib 0.033 | doramapimod -0.038 | bafetinib 0.071 | [2] -0.051 | nilotinib -0.005 | [3] -0.004 | dasatinib 0.035 | [4] -0.028 | [5] -0.013 | tipifarnib 0.027 | [6] -0.019 | [7] -0.008 | [8] -0.006

Further entries:

RPS12 (UniProt P25398)
inactive: lapatinib -0.005 | pictilisib 0.02 | crizotinib 0.02 | [1] 0.059 | duvelisib 0.003 | gandotinib -0.034 | tozasertib -0.005 | doramapimod -0.04 | bafetinib 0.065 | [2] -0.012 | nilotinib -0.013 | [3] -0.011 | dasatinib 0.006 | [4] 0.022 | [5] 0.007 | quisinostat 0.052 | tipifarnib 0.009 | [6] -0.046 | [7] -0.007 | [8] 0.019

RSU1 (UniProt Q15404)
inactive: lapatinib 0.001 | pictilisib 0.045 | crizotinib 0.07 | duvelisib 0.007 | gandotinib -0.116 | tozasertib 0.015 | doramapimod -0.045 | bafetinib 0.039 | [2] -0.135 | nilotinib 0.011 | [3] -0.011 | dasatinib 0.007 | [4] -0.028 | [5] 0.001 | quisinostat 0.112 | tipifarnib 0.016 | [6] -0.002 | [7] 0.007 | [8] 0.002
active: [1] 0.329

RPL6 (UniProt Q02878)
inactive: lapatinib -0.012 | pictilisib -0.011 | crizotinib 0.006 | [1] 0.014 | duvelisib 0.013 | gandotinib -0.014 | tozasertib -0.025 | doramapimod -0.015 | bafetinib 0.011 | [2] -0.051 | nilotinib 0.025 | [3] -0.026 | dasatinib -0.02 | [4] 0.006 | [5] 0.007 | quisinostat 0.013 | tipifarnib 0.02 | [6] 0.004 | [7] -0.013 | [8] 0.021
